# These are yes or no findings as the source states them, for the method shown. In cells and extracts the contact can be indirect. Some entries that bind do so weakly or less than the wild type.
# The chains behind the UniProt entries cited, without tags or fusion partners.
# UniProt Q15746: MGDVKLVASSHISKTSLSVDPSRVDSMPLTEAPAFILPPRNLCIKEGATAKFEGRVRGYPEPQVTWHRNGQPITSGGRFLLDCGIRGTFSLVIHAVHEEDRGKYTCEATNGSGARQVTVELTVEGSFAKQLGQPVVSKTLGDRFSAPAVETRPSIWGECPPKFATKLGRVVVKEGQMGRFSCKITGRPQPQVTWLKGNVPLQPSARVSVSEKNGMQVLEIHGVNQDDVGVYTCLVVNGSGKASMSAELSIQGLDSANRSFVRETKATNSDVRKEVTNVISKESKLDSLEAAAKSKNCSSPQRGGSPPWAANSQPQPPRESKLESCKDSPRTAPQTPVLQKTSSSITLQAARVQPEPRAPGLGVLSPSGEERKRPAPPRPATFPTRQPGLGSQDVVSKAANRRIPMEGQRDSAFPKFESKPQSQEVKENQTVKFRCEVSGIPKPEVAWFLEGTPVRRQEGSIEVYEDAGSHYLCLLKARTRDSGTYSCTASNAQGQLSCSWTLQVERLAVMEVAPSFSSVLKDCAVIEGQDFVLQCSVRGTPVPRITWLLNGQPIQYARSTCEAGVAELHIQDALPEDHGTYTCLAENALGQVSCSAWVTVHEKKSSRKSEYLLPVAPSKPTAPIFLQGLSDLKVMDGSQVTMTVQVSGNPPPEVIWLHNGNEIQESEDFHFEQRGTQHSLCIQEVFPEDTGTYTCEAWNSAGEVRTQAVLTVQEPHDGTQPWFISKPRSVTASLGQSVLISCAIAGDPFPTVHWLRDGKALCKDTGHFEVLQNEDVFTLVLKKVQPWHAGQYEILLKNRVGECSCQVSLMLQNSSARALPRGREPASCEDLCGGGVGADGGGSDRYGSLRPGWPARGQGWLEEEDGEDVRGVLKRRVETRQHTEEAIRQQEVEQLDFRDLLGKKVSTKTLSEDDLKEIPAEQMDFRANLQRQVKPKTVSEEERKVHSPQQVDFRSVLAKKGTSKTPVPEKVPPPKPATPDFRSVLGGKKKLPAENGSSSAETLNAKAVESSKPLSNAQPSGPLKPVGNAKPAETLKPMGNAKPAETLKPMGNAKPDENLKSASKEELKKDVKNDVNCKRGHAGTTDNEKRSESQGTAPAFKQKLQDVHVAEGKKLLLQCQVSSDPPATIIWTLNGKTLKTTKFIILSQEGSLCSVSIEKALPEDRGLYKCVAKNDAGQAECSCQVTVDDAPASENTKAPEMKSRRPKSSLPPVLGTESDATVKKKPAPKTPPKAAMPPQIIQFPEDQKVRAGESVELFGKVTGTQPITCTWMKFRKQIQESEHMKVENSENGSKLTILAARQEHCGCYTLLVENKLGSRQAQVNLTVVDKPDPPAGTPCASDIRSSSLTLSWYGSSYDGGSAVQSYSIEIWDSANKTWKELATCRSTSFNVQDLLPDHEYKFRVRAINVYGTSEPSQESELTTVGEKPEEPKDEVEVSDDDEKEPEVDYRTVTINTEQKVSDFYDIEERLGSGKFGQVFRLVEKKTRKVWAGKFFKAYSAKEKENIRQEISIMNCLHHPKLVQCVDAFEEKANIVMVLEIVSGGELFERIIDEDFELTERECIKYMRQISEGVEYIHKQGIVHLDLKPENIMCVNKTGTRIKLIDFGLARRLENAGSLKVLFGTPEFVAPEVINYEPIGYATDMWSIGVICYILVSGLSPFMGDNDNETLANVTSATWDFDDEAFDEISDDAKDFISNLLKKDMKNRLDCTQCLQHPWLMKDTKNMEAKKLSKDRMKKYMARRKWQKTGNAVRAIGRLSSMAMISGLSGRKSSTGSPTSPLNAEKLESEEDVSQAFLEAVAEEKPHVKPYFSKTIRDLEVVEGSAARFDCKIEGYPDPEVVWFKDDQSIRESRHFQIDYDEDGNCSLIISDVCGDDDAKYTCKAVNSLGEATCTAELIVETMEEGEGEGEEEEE
# UniProt P61586: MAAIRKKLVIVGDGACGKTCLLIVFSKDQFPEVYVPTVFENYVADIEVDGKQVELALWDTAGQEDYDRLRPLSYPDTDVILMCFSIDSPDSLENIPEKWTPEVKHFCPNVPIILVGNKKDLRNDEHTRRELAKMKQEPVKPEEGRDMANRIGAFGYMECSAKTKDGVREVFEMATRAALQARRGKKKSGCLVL
# Molecular target: T1, Hyaluronidase (HYAL)-2 (human (endogenous in human lung fibroblasts AG02262)) (UniProt Q12891)
# T1 sequence: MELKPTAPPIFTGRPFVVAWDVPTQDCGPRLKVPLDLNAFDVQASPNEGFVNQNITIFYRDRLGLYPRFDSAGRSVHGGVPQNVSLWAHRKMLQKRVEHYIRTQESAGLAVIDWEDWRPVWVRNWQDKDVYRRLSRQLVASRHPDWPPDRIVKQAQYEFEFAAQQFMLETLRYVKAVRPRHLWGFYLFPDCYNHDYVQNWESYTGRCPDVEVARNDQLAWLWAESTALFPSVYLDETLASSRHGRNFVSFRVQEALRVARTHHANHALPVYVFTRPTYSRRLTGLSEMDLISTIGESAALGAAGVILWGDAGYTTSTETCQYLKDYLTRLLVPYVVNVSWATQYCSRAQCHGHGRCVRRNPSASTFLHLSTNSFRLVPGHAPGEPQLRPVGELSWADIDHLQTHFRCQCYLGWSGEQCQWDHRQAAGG
# Assay: co-IP; 25 μg protein of RIPA lysate of human lung fibroblasts (serum-free medium alone or 10 ng/mL TGF-β1, 72 hours) precipitated with anti-HYAL2 antibody-linked anti-rabbit Dynabeads, overnight at 4°C, three washes with Nonidet P-40 buffer; Western blot of the precipitate; rabbit IgG as negative control
row,binding,Substance
1,binds,myosin light-chain kinase (MYLK; MLCK) (from UniProt Q15746 1-1914) (enzyme)
2,binds,ras homolog family member A (RhoA) (from UniProt P61586 1-193)

# From article PMC7254050
